Measured values: PMC5605516
These are yes or no findings as the source states them, for the method shown. A result given as binding can be weak or reduced; the word gives no strength. For some assays here: Binding seen in cells or lysates may run through a third protein.

Protein sequences, listed by entry. Tags and fused reporters are not part of them. Lines headed by an entry give the natural chain unless they say otherwise; changes in a name come on top. Chains listed by the source or under a name are the forms on record and can include a tag or linker. Residues count along the entry.
UniProt Q15942: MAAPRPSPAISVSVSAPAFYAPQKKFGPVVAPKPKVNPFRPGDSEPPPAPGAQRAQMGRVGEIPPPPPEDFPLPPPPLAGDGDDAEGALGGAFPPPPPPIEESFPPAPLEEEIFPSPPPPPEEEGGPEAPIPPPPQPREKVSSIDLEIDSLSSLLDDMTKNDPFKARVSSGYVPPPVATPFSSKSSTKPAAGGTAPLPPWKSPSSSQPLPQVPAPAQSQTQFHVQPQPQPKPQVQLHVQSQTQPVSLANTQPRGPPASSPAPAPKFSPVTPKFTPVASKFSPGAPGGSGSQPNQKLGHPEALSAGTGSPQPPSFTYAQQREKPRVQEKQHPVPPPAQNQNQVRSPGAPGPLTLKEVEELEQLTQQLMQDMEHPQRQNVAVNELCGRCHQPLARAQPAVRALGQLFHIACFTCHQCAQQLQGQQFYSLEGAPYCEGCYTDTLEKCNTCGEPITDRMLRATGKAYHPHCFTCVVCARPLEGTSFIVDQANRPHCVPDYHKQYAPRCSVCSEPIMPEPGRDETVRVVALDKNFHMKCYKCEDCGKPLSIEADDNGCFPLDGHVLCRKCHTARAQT
UniProt Q9BYX4: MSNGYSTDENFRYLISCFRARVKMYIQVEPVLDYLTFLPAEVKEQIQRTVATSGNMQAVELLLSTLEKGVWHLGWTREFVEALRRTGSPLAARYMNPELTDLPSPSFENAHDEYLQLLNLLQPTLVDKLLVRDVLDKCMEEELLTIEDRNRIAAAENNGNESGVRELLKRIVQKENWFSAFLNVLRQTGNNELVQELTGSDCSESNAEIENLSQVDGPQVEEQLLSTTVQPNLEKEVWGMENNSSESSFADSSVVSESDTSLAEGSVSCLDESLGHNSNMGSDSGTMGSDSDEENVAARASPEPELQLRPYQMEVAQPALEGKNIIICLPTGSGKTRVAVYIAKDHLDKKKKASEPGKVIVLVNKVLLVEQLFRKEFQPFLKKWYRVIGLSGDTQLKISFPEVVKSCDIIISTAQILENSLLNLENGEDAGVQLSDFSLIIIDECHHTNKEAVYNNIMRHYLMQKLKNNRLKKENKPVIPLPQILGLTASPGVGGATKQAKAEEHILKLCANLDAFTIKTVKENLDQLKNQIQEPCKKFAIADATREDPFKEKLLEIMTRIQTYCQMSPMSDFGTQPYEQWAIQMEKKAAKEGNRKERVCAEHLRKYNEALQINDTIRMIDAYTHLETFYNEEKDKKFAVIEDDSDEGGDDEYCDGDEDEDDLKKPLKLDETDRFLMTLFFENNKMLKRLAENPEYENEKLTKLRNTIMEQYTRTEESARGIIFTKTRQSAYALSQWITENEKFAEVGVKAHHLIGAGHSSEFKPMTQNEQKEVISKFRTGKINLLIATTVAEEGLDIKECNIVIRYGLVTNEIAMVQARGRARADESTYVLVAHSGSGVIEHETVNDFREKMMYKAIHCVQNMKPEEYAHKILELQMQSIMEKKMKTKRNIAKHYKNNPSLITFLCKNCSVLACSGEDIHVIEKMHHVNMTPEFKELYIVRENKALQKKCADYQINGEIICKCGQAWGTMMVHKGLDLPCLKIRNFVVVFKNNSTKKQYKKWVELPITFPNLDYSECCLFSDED
UniProt Q7Z434: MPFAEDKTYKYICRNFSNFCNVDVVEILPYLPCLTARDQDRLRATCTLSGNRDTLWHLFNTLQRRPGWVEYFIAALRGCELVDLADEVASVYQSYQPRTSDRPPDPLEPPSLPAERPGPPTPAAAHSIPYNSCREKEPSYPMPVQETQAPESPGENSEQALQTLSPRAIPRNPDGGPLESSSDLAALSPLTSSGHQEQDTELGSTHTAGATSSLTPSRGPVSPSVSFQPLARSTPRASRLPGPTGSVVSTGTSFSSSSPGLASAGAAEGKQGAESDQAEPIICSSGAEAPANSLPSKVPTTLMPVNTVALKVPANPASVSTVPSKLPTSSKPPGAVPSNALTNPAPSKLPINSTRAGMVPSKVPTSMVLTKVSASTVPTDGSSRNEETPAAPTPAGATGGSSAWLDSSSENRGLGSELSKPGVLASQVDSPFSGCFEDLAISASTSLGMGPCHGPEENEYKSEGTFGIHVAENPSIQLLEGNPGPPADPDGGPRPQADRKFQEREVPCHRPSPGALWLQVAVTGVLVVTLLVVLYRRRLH
MAVS CARD fragment fused to the Gal4 DNA-binding domain: residues 10-77 of Q7Z434
UniProt O95786: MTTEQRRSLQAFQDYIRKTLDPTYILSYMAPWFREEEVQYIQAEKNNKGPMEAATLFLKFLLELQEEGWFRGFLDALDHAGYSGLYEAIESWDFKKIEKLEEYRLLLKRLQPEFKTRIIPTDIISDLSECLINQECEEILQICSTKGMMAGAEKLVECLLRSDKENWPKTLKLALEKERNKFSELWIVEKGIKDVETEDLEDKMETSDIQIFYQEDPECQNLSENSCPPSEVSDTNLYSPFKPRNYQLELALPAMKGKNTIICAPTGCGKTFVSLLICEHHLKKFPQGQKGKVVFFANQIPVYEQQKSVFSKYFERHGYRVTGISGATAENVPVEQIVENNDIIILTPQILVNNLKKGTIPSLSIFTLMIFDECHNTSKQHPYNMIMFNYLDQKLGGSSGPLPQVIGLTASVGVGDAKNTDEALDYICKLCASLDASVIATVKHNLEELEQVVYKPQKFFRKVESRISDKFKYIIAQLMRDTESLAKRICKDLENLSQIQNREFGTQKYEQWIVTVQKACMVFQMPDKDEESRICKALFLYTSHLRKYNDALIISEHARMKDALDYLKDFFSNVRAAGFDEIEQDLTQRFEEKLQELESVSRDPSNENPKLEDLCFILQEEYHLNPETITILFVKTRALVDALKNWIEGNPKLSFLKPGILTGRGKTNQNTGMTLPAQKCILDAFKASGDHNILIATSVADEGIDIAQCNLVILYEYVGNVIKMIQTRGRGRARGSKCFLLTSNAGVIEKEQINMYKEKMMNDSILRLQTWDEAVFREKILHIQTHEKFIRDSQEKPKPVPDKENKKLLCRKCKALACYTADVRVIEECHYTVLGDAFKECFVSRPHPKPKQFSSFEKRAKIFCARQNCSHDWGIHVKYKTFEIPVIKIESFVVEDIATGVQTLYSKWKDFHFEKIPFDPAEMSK

Columns and labels:
[1] = target: zyxin C-terminal fragment, HA-tagged (human) (UniProt Q15942); assay: co-IP; HEK293FT transfected for 24 h with Zyxin-HA fragments and FLAG-MAVS or FLAG-RIG-I; IP with anti-HA antibody, western blot
[2] = target: zyxin N-terminal fragment, HA-tagged (human) (UniProt Q15942); assay: as above
FLAG-tagged MDA5 = FLAG-tagged MDA5 (UniProt Q9BYX4); assay: co-IP
[3] = target: MAVS CARD fragment fused to the Gal4 DNA-binding domain (bait) (UniProt Q7Z434); assay: two-hybrid; retest: AH109 yeast transformed with MAVS CARD bait and zyxin C-terminal region prey; growth on selective medium (SD-WLH in the text, SD-WLHA in the legend); empty prey plasmid as control
[4] = target: MAVS CARD fragment fused to the Gal4 DNA-binding domain (bait) (UniProt Q7Z434); assay: two-hybrid; screen: MAVS CARD bait (pGBKT7) against a human lung cDNA library (prey) in AH109 yeast; SD-WLH and SD-WLHA selection plates

Substance	binding [1]	binding [2]	binding (FLAG-tagged MDA5)	further results
FLAG-tagged MAVS (from UniProt Q7Z434 1-540)	binds	no binding	–	–
FLAG-tagged RIG-I (from UniProt O95786 1-925)	binds	binds	–	–
zyxin C-terminal fragment, HA-tagged (from UniProt Q15942) (domain or fragment)	–	–	binds	–
zyxin C-terminal region fused to the Gal4 activation domain (prey) (from UniProt Q15942) (domain or fragment)	–	–	–	binding [3]: binds; binding [4]: binds
zyxin N-terminal fragment, HA-tagged (from UniProt Q15942) (domain or fragment)	–	–	binds	–
